Measured values taken from PubChem BioAssay AID1508600 (Functional Genomics Laboratory (NCATS/FGL), 2020).
The campaign covered roughly 53,000 sequences. About 3,700 (7%) were called active.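 The calls were made as follows: active = gene knockdowns whose robust z-score for IL-1 alpha signal is at least 2 or at most -2, so actives lie on both sides; inactive = the rest.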 Some of the results follow.

Assay: Components of the Cytosolic LPS Sensing Pathway: Gene Identification via Genome-wide siRNA Screen;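 also: robust z of the log signal after scaling to non-targeting control siRNA wells of the plate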
Details: RAW264.7 macrophages, IL-1a HTRF, actives lie on both sides, screened at 100 nM (by protocol), cells primed 5 h with Pam3CSK4 first
Summary of the method: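 IL-1a HTRF of supernatants after 24 hour LipidA transfection of Pam3CSK4-primed (5 hours) RAW264.7 cells, 48h post-siRNA transfection (100 nM). Scores: percent of plate negative-control median, then log-based robust z-score.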

Row | Sequence | z-score
1 | GCUGUCAUCCCACUCAAACTT against Ralyl | inactive: 0.232
2 | GGAGCACUAAAUCAAAAAATT against Ptprz1 | inactive: 1.78
3 | GGGUCUGUUUCCUUCUGGUTT against Olfr214 | inactive: -0.117
4 | GCUUCGCACCUACAUCAUGTT against Pnmt | inactive: 0.862
5 | CCACUUGUAGUUACAAAACTT against Gatad1 | inactive: 0.701
6 | GGCCAGUUCUAUGUCAUGATT against Usf2 | active: -2.05
7 | GGAGUUAGUGGUCUCCACUTT against A130023I24Rik | inactive: -0.535
8 | GGCUGACAUCCAGAAUUUCTT against Eci1 | inactive: -0.744
9 | GGCAGUUACCUAAAACUAUTT against Polh | inactive: -0.0545
10 | GGAAAACCUGAUGACAGACTT against Apoc2 | inactive: -0.581
11 | GGACUGAUGGAUCCUUCCATT against Krtcap3 | active: -2.12
12 | GGUGAAUAAUAAAUGUCUGTT against Igsf9 | inactive: 0.375
13 | GCACGUAUGGUCAACAUCGTT against Rab2b | inactive: -1.42
14 | GGUUGUCAAGAAAUUACCCTT against Marchf10 | active: 2.14
15 | CGAACUGGCCAAGAGUUACTT against Nras | inactive: -1.13
16 | GGGUAACAUCCUCAUGACATT against Zfp282 | inactive: -0.502
17 | GGAGAUGAUGCCGUCAUUCTT against Chaf1b | inactive: 1.97
18 | GGACUUAGAGAGUAUGGACTT against Ctdp1 | inactive: 0.385
19 | CGUCUCAACAGAGUUGGAGTT against Prmt2 | inactive: 1.94
20 | GGUACAAUGAAAGUCUCACTT against Cnot6 | inactive: -0.0743
21 | GGCUUUUCUGAGGAGCACATT against Cbx5 | inactive: 0.504
22 | GGUAGUACCGUGUUAAGUGTT against Uchl5 | inactive: -0.208

Row | Sequence | z-score
23 | CGAGCAAGCUGACAUCUUUTT against Tbc1d4 | inactive: -1.28
24 | CCUAGACGAUGUCAUGAAGTT against Lrrc4b | inactive: -0.0195
25 | GGAUUGGUUACCAAAUGGUTT against Mapk6 | inactive: -1.67
26 | GGACACGUUUCUGUGUUGUTT against Tspan32 | inactive: 0.304
27 | GGGAUAUCUCGCUUCUAUATT against Jmjd8 | inactive: -0.136
28 | GGAAAAGAAGACCUACACCTT against Ppp1r1c | active: -2.04
29 | GGAGGUCAGUAGCUUCCUUTT against Krtap26-1 | inactive: -0.912
30 | GGGAGUGUGAGGUAUGAACTT against Lrrtm4 | inactive: 0.454
31 | GGCUUUUGGAAAGUGGCUUTT against Ankrd46 | inactive: -0.512
32 | GAUCAGAUGUUUGGGACUUTT against Olfr512 | active: 2.25
33 | GGGUCUACCACAUGUACAUTT against Slc16a6 | active: 2.23
34 | CGAACUGGUAGAAGUUAUUTT against Csgalnact2 | active: 2.07
35 | GGGUUGUUUGUCUUGUUCGTT against Rspo2 | inactive: 0.847
36 | GCUAGUCAAGACCAGUCCGTT against Ttl | inactive: -1.15
37 | GGUAUUUGAAGAACGAAGATT against Fbxo16 | inactive: -0.388
38 | CGGCUUCAGGAGAACAUUATT against Mmaa | inactive: 1.03
39 | GGCGAGAGUAUGAACACUUTT against Evpl | inactive: 0.361
40 | GGCAUCUCUGUACAGGAAGTT against Mst1r | inactive: -1.17
41 | GCGCAUCUAUGAAAAAACATT against Cerk | inactive: -0.471
42 | GCCUGCUAGUUAUGUUUCATT against Akirin2 | inactive: -0.127
43 | GGUGGUUUUGAUUAAUGGGTT against Hpn | inactive: 0.274
44 | GGUGUGGAGUACCGGAUAATT against Arhgdia | inactive: 1.09

Part of the list above in another layout:
Row	Sequence	z-score
25	GGAUUGGUUACCAAAUGGUTT against Mapk6	inactive: -1.67
31	GGCUUUUGGAAAGUGGCUUTT against Ankrd46	inactive: -0.512
35	GGGUUGUUUGUCUUGUUCGTT against Rspo2	inactive: 0.847
36	GCUAGUCAAGACCAGUCCGTT against Ttl	inactive: -1.15

Next part

Row | Sequence | z-score
45 | CCCUAUAAGCAACUUAUGCTT against Tor1aip1 | inactive: -0.115
46 | GGUGUCUCUCCAGGAUAACTT against Ctrl | inactive: -0.511
47 | CGAUAGCAAAGAACCUUAUTT against Mastl | inactive: 0.307
48 | GGCAUGAGGAUCGUUAGAUTT against Mccc1 | inactive: -0.266
49 | GGAGGUAUUAUCUGAAUUGTT against Utp14a | inactive: 1.17
50 | GCUCAGAUUUGCUUUAUGATT against Ube2r2 | inactive: 0.367
51 | GGAGGCAGAGAUAACCUUUTT against Sphk1 | inactive: 1.62
52 | GGAUACAUCUGAUUUAAUGTT against Ints10 | inactive: -1.05
53 | CGAGUGGAAAGAUUUAUAGTT against Ubxn2a | inactive: -0.603
54 | GGUUCUGUACGCCACUUGCTT against Cers1 | inactive: 0.256
55 | GGUUUAAUGUUAUAUACGGTT against Olfr606 | active: 2.43
56 | GGAUGCAUGACACAGACUUTT against Olfr47 | inactive: 0.492
57 | GGUACAUCCAGCACAUGGATT against Rnf25 | inactive: 1.77
58 | CCAAGGAGACGGAAUACAGTT against Tgfb1 | inactive: 0.97
59 | GGACUGUUUACUCAGCUCATT against Slc25a33 | active: -2.02
60 | GGCCUAAUCUCAGAAGCAUTT against Tead2 | inactive: -0.11
61 | GGGAUUUCUGGAGAAAAUGTT against Csta2 | inactive: -0.872
62 | CCGACUACUUAAGUUUCCGTT against Ppp1r3c | inactive: 0.837
63 | GGAUACAUUGAAUCAAUGGTT against Cstad | inactive: 0.888
64 | GGAAGAUGCCAUCUUACACTT against Borcs7 | active: 2.5
65 | GGAAGAGAAUCAAGAGCCATT against Lrrc10 | active: -2.65
66 | GGUCCCUAAAAGGUAAACUTT against Rai1 | inactive: 0.228

Row | Sequence | z-score
67 | GGUAAUUGGUAGGAAGCUUTT against Olfr836 | inactive: -0.317
68 | GCCCAUGUAUUUUUUUCUCTT against Olfr67 | inactive: -1.33
69 | GGUAAAUAGCUGUCUUGGCTT against Cerk | inactive: -0.622
70 | GCUCCAAAUAAGCUUUUUATT against Gabra4 | inactive: -0.554
71 | GGAAAUCAGUGCCAACAACTT against Asic5 | inactive: -1.26
72 | GGACAGAUGAUGAAGUUGUTT against Hsp90b1 | active: -2.24
73 | GGAGCUUCGAAAAAAGUUGTT against Pex16 | inactive: 0.329
74 | GGGUCUUUCUCCUUAGCCCTT against Tmem119 | inactive: -0.483
75 | GGUAUUCACUUAAGCAUUUTT against Slco1b2 | inactive: 0.552
76 | GGGUCUAUUUUAAACCCUUTT against Cnpy4 | inactive: 0.937
77 | GGUGUUCUUUGAACUCAAUTT against Pcx | inactive: 0.615
78 | GCAGUGCUCUUAGUAGGACTT against Pfn3 | inactive: 0.868
79 | GCGAAUGUUACAUGUCAGUTT against Tdpoz5 | inactive: -0.862
80 | GCAUCGUUAUCUUUACACUTT against 5730522E02Rik | inactive: 0.344
81 | UAUUUCUCCCUUGCUGGUATT against Gm5168 | inactive: 1.18
82 | GGGUGCUGAACAGUCACAATT against Rab12 | inactive: 0.717
83 | GGAUGCAUACGACAUAAACTT against Cdh15 | inactive: -0.116
84 | GGUUCUUAAUGCAUUCCCGTT against Cyp2d9 | inactive: -0.786
85 | CGUCCUUAUCCACAACACATT against Sertad3 | inactive: -1.85
86 | GGGCAAAAACUGUCUGACUTT against Rps3a1 | inactive: -0.197
87 | GGGUAGACAGAAAGCCUUUTT against Olfr111 | inactive: 0.419
88 | GGAAGGAAGCAGAGAGUUATT against Ndel1 | active: 2.92

A stretch from further up, as a working copy:
Row | Sequence | z-score
82 | GGGUGCUGAACAGUCACAATT against Rab12 | inactive: 0.717
83 | GGAUGCAUACGACAUAAACTT against Cdh15 | inactive: -0.116

Additional results.

Row | Sequence | z-score
89 | GGUAGGAAAUGUUUCAUGUTT against P4ha3 | inactive: 0.137
90 | CCUUACCAGGAAACAUAUUTT against Dennd10 | inactive: -1.33
91 | GCCAACGGAGUUCCCACUATT against Cited1 | inactive: -0.586
92 | GAGCCUUCUAAGUCUGCACTT against H2bc3 | inactive: -1.31
93 | GGCACUUGUAUAUGAACUATT against Fbxo36 | inactive: 0.106
94 | GGGAGUGAGUUCUGGAGUGTT against Capn2 | inactive: 0.815
95 | GAUGAAGAGGCAGGCCAAGTT against Nkx2-4 | active: 2.63
96 | GGAGGAGUUGCUAUUAGACTT against Lin28b | inactive: -0.182
97 | GCACUUCAAUGAGCGAGAATT against Mknk1 | inactive: -1.48
98 | GGUGGUCACUAGCUAACCCTT against 4632433K11Rik | inactive: 0.548
99 | GCCCUUAUGGACGAAAUUUTT against Ang2 | inactive: 0.0523
100 | GGAAAAAAGACCACCAAGATT against Mtif2 | inactive: -0.693
101 | GCCGAAGAACUAAAAGACUTT against Cyb5a | inactive: 1.79
102 | GGUGAAGAAAGUCAAGAAGTT against Spi1 | active: -2.46
103 | GGCCCUCACCAUCUUUUGGTT against Olfr691 | inactive: -1.15
104 | GGCAGAUUCAGAAUUGUCUTT against Il17a | active: -2.58
105 | GGAAUUAUCGCAUCUUUGATT against Sh3bp2 | inactive: 0.0729
106 | GGAACUGGACAAGGACGAUTT against Arhgdia | inactive: 1.17
107 | GGACCUGACAGUUCAAAAATT against Dars | inactive: 0.856
